The target in the experiment is FLAG-tagged human DGCR2 (FLAG-hDGCR2) (human) (UniProt P98153). Nature of the experiment: co-IP; HEK 293T cells co-transfected; lysates (IP buffer: 20 mM Tris pH 7.6, 50 mM NaCl, 1 mM EDTA, 1 mM NaF, 0.5% Nonidet P-40) immunoprecipitated with anti-FLAG antibody at 4 °C; blotted with anti-GFP and anti-FLAG.

Protein sequences, listed by entry. Tags and fused reporters are not part of them. Lines headed by an entry give the natural chain unless they say otherwise; changes in a name come on top. Residues count along the entry.
UniProt P98153, residues 22-550: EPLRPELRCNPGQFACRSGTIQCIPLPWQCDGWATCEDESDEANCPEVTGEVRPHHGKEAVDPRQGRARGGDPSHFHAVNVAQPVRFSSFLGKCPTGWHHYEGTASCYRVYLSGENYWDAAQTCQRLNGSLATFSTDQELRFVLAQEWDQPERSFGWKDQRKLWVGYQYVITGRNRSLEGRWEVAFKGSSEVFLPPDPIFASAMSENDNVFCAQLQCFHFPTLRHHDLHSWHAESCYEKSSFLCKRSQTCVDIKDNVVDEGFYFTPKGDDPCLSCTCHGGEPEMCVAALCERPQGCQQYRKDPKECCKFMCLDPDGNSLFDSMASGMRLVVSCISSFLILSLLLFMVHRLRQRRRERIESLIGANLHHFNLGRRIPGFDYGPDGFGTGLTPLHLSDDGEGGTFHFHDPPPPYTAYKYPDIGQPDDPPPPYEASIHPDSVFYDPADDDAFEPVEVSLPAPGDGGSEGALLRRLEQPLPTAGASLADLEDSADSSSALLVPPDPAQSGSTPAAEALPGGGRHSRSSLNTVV
UniProt P15116: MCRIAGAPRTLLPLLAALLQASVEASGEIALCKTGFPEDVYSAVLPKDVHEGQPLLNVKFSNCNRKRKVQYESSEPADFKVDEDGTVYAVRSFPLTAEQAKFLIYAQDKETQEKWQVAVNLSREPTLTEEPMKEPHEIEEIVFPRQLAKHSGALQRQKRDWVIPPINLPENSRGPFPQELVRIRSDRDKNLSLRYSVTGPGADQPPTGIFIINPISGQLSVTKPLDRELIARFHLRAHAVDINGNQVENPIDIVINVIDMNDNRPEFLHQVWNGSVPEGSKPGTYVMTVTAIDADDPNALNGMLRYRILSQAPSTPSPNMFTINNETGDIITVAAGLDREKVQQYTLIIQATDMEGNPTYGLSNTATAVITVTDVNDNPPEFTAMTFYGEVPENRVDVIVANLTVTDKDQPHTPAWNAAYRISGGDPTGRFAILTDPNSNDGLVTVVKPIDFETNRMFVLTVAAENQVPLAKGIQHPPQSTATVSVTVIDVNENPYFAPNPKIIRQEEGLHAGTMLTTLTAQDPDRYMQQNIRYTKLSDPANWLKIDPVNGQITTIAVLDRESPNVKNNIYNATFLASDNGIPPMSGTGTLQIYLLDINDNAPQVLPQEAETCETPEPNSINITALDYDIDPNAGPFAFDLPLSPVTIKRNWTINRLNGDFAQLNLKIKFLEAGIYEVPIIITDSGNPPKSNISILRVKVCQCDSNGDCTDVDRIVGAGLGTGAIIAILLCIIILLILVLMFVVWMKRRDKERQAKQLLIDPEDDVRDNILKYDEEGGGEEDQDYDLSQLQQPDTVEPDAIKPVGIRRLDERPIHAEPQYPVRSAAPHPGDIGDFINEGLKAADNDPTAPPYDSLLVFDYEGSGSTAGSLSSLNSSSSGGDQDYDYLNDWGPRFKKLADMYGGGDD

The values below come from publication PMC10362570.

These are yes or no findings as the source states them, for the method shown. In cells and extracts the contact can be indirect.

In the case of N-Cadherin-GFP (from UniProt P15116), the binding entry is recorded as “no binding”.
